Results are given in words; binding and its absence hold for the method and conditions named. In cells and extracts the contact can be indirect. These calls come from enrichment with a bait or labelling near it, and not all partners need be listed.
Biological target: T1, Splicing factor proline- and glutamine-rich (SFPQ) (human (endogenous in HEK293T)) (UniProt P23246)
T1 sequence: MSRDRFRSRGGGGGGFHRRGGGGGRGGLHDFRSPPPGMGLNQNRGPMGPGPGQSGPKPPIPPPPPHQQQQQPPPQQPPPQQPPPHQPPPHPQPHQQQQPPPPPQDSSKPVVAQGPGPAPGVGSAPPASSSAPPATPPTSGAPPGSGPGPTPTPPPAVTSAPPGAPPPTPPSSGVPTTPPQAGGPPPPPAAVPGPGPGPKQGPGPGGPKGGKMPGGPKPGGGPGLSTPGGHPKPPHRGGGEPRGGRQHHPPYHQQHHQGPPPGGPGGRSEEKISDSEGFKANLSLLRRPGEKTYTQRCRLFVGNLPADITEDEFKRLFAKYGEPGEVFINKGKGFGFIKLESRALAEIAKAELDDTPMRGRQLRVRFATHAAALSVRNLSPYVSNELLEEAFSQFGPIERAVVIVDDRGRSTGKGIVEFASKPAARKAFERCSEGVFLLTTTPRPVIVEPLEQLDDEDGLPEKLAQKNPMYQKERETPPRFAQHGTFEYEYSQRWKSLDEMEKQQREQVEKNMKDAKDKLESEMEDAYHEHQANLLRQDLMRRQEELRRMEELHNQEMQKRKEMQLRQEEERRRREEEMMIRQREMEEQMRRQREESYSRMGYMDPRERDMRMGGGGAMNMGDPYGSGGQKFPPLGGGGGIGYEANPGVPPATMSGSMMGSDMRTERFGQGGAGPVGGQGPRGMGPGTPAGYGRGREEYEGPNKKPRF
Test: affinity purification with mass spectrometry; co-IP in HEK293T cells using an SFPQ antibody; protein samples silver stained and analysed by MS

By UniProt entry, the sequences of proteins in these tests, tags left out.
UniProt Q9UKB1: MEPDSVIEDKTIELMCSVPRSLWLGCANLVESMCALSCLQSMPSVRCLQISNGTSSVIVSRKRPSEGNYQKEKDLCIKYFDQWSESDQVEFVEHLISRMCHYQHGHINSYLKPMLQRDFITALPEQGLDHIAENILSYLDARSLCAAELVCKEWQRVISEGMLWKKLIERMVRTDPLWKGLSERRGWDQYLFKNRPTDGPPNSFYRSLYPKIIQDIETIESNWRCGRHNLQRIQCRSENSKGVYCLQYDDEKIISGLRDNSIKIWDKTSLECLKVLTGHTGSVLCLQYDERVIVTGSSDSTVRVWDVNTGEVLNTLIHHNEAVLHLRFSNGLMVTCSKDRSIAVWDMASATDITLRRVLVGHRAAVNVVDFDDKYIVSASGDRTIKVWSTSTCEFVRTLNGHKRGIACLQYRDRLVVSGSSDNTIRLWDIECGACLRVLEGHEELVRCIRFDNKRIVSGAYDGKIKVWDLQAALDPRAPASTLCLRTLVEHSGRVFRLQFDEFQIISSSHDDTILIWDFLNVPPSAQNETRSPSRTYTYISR

binding: binds
Substance: F-box and WD repeat domain containing 11 (FBXW11) (from UniProt Q9UKB1 1-542)

Reference: paper PMC11762487
